Experimental data from the supplement of paper PMC10849652.
This is one part of the list.

Sequences of proteins named here, by UniProt entry; tags and fusion partners are left off. A change or cut given only in a name is not applied to a line headed by its entry.
UniProt Q14692: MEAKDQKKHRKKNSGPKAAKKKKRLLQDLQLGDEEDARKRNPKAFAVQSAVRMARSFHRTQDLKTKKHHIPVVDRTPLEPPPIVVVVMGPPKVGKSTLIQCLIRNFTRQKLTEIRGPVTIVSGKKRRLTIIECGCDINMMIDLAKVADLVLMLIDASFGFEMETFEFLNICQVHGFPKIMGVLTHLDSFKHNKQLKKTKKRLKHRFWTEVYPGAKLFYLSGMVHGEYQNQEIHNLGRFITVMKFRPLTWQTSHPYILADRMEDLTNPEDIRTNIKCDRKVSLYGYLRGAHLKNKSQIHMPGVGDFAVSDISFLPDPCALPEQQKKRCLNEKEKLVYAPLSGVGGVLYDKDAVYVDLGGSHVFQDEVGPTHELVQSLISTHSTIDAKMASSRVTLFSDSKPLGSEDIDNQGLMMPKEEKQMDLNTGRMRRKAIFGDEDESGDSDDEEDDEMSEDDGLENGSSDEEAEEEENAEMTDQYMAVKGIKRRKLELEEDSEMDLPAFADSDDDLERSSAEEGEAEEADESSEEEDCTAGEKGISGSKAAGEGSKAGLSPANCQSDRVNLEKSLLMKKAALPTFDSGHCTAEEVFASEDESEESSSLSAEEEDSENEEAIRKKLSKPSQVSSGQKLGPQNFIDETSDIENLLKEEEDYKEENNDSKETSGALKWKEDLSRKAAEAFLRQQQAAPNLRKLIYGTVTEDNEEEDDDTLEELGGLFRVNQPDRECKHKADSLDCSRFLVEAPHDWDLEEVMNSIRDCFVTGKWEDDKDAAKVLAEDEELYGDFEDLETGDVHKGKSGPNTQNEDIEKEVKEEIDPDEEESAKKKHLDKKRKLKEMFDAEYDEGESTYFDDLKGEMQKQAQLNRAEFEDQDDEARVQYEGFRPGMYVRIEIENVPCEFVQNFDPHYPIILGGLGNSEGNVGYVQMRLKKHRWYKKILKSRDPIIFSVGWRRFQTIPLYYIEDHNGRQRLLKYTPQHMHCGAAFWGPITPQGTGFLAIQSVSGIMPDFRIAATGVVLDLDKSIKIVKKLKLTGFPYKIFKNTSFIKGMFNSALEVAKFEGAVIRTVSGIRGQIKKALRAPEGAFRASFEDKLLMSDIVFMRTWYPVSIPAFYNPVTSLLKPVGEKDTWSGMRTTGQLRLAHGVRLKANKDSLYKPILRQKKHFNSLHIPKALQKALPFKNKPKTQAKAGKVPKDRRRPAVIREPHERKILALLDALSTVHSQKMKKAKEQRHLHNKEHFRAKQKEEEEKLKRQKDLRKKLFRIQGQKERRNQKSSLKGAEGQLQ
UniProt Q9H3K6: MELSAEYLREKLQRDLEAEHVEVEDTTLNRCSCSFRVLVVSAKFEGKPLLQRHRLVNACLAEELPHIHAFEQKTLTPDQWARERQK
UniProt P07738: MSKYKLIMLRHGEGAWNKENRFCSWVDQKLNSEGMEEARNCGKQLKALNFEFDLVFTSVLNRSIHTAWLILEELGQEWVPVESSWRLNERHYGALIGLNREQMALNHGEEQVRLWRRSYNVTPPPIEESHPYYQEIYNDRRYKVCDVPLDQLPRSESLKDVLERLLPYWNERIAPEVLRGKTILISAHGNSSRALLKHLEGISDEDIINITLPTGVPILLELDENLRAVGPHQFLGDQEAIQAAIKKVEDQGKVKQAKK
UniProt Q16611: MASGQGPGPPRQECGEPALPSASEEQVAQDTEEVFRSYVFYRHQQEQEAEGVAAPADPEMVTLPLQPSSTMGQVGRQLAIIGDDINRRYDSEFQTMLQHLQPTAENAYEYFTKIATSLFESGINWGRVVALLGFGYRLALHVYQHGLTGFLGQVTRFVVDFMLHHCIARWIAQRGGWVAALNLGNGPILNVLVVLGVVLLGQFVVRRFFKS
UniProt Q8NFC6: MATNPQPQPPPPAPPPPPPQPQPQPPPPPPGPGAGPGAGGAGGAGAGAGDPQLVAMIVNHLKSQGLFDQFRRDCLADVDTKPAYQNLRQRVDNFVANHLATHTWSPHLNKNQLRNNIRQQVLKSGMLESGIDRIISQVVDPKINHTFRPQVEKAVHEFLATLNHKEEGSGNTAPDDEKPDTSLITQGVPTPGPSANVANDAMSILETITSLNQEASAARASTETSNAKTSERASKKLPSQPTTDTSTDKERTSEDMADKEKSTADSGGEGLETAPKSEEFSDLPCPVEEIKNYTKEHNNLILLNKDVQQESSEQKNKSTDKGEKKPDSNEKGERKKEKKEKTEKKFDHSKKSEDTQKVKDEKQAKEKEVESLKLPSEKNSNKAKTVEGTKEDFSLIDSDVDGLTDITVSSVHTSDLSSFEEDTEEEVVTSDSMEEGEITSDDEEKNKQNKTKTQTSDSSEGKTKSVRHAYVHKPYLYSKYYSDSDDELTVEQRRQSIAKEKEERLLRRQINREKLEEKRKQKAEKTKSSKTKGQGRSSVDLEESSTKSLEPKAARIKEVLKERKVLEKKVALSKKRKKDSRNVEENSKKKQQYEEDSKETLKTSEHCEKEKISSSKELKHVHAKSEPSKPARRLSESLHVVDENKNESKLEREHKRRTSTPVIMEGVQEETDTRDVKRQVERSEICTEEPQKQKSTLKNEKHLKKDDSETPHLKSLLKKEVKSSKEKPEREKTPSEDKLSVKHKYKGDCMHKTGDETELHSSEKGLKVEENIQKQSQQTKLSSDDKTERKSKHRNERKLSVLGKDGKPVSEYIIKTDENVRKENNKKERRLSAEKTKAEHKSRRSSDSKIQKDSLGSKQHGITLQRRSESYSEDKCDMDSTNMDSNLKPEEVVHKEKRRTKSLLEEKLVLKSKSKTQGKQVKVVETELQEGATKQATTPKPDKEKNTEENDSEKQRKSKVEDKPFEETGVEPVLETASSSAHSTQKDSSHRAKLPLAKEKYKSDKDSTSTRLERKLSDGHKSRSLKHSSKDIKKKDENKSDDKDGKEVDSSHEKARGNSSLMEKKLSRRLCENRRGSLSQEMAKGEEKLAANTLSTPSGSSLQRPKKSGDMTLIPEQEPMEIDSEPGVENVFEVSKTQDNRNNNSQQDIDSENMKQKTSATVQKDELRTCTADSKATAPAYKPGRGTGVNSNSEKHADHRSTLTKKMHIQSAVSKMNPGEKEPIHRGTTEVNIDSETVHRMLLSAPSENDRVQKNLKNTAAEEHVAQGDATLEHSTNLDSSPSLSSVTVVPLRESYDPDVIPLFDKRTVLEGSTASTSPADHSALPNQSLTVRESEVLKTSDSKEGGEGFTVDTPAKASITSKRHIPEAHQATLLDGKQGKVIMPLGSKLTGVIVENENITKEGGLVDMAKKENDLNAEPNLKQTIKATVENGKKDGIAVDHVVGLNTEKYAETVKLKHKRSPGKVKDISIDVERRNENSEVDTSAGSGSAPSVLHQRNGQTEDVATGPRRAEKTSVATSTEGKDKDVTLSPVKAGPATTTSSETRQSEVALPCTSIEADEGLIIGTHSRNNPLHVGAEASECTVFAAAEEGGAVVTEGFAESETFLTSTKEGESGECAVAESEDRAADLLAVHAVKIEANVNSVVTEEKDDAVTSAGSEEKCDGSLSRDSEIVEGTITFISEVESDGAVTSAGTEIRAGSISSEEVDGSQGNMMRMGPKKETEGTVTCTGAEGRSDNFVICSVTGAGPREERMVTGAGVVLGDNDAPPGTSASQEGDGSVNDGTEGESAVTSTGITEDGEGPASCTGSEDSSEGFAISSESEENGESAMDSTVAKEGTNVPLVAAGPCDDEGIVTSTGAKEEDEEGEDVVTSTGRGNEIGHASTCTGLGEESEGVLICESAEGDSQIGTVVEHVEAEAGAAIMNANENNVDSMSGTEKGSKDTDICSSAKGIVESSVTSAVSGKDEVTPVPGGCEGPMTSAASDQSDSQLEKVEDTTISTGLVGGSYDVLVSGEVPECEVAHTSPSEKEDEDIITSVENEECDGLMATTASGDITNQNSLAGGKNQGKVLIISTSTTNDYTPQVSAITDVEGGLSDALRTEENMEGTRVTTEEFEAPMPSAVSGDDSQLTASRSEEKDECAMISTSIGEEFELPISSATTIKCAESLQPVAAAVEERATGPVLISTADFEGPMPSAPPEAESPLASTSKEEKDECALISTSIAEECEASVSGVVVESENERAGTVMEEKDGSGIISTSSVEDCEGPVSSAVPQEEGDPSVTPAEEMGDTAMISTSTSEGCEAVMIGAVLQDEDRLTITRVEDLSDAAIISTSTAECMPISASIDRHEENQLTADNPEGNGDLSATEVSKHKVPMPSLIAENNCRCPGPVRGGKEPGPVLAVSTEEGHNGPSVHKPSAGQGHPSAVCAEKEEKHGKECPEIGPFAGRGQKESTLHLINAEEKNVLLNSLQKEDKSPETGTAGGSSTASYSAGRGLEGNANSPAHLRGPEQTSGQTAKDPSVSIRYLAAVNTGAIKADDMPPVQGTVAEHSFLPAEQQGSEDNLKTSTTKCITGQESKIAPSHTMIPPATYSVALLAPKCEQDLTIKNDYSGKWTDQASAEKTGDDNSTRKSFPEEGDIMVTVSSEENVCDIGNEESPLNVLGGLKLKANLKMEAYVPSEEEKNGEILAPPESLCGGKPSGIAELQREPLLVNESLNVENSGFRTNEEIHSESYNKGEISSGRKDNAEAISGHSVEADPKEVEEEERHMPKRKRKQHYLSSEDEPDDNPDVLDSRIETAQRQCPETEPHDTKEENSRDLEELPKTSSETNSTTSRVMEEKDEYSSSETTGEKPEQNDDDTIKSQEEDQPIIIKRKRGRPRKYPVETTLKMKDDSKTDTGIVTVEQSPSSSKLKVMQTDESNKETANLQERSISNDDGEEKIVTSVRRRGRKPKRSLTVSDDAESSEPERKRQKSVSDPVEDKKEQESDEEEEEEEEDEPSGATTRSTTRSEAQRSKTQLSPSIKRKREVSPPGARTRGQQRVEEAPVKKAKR
UniProt Q9BXY8: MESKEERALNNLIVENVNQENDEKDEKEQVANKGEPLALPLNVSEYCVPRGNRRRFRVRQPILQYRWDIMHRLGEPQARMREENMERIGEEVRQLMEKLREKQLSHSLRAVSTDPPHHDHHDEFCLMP
UniProt Q96B45: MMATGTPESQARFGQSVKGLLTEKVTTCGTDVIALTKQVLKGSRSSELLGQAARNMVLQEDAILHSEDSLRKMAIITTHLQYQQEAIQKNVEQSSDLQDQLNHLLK
UniProt O60512: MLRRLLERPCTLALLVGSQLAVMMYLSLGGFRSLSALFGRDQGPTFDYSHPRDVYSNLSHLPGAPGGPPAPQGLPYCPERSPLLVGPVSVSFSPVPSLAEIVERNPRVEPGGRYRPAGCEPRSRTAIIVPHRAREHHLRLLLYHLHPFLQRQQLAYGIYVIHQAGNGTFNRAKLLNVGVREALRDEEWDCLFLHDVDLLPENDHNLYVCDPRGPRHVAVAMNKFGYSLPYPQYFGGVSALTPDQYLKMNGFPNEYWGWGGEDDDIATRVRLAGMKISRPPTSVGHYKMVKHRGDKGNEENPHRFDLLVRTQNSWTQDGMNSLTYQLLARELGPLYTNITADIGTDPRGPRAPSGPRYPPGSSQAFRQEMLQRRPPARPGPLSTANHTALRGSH
UniProt Q6QNY1: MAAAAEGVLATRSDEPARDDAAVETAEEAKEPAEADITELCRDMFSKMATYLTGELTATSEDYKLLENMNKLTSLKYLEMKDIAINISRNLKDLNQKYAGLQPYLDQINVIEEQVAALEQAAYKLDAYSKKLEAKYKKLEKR
UniProt Q53S33: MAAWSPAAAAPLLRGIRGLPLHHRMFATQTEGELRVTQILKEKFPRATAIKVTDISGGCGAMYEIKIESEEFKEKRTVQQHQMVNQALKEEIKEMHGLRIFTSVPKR
UniProt P54687: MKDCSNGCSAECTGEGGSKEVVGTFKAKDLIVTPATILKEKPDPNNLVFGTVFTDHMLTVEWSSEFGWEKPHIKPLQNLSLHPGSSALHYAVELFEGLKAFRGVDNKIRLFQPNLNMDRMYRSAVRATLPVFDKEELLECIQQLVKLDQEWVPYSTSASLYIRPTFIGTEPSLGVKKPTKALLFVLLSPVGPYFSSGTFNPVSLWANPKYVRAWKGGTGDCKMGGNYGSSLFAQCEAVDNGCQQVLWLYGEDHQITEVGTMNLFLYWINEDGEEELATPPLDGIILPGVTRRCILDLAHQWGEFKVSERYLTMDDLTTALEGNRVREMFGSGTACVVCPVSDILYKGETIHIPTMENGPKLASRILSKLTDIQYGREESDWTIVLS
UniProt Q9Y276: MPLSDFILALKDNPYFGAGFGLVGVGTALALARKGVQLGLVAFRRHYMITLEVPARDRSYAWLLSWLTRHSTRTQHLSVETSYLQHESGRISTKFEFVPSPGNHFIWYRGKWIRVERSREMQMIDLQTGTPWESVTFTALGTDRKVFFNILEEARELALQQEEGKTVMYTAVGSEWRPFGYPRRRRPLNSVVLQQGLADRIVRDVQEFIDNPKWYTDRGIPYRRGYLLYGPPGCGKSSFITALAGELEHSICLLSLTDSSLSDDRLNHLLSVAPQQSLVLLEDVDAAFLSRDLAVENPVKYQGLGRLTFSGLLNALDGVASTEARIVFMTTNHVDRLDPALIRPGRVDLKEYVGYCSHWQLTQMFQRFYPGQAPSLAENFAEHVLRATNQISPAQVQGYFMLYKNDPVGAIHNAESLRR

How the values were obtained:
Assay in all cases: log2 fold change, soluble protein after heating vs DMSO (PISA); higher = thermal stabilisation; K562 lysate, 10 uM; active = over 0.2 and 3.5 SD of the protein, either way, in both replicates (recomputed)
[1] = compound: NCC(=O)Nc1ccc(-n2nc(C(F)(F)F)cc2-c2ccc3c(ccc4ccccc43)c2)cc1
Outline: (§1)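 The values are log-two fold changes in thermal stability compared with solvent controls and come from duplicates. They were obtained by TMTpro 16plex LC-MS/MS, with channel sums equalised, on the supernatant after 21,000xg for 90 min. That supernatant came from crude K562 extract at 1 mg/mL protein treated with 10 μM compound for 30 min, heated for 3 min across 48°C-58°C, pooled and brought to 0.5% NP-40 at 4°C.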

[2] = compound: O=C(CCCCCCC(=O)Nc1ccccc1)NO [vorinostat]
Outline: as §1

[3] = compound: O=C(O)c1ccc2c(c1)nc(Nc1cccc(Cl)c1)c1ccncc12 [silmitasertib]
Outline: as §1

[4] = compound: O=C1NC(=O)C(c2cnc3ccccn23)=C1c1cn2c3c(cc(F)cc13)CN(C(=O)N1CCCCC1)CC2
Outline: as §1

[5] = compound: c1cn2cc(-c3ccc4cn[nH]c4c3)nc(Nc3ccc(N4CCOCC4)cc3)c2n1 [entospletinib]
Outline: as §1

Measured: log2 fold change

B4GALT1 (UniProt P15291)
inactive: [1] 0 | [2] 0.134 | [3] -0.081 | [4] -0.023 | [5] -0.001

BRD2 isoform 2 (UniProt P25440)
inactive: [1] 0.048 | [2] 0.107 | [3] 0.074 | [4] 0.051 | [5] 0.021

BMS1 (UniProt Q14692)
inactive: [1] 0.024 | [2] -0.037 | [3] 0.04 | [4] 0.033 | [5] 0.045

BAHCC1 (UniProt Q9P281)
inactive: [1] 0.009 | [2] -0.082 | [3] -0.086 | [4] -0.158 | [5] -0.069

BET1L (UniProt Q9NYM9)
inactive: [1] 0.073 | [2] 0.002 | [3] -0.031 | [4] 0.029 | [5] 0.017

BOLA2 (UniProt Q9H3K6)
inactive: [1] -0.085 | [2] 0.1 | [3] 0.039 | [4] -0.039 | [5] -0.015

BPGM (UniProt P07738)
inactive: [1] -0.079 | [2] 0.043 | [3] -0.01 | [4] -0.02 | [5] -0.028

BAD (UniProt Q92934)
inactive: [1] -0.127 | [2] 0.006 | [3] -0.056 | [4] 0.024 | [5] -0.039

BLVRB (UniProt P30043)
inactive: [1] -0.033 | [2] -0.116 | [3] 0.007 | [4] 0.016 | [5] 0.041

BTBD6 (UniProt Q96KE9)
inactive: [1] 0.193 | [2] 0.254 | [3] -0.148 | [4] 0.412 | [5] 0.055

Two entries picked at random from the list so far:
BPGM (UniProt P07738)
inactive: [1] -0.079 | [2] 0.043 | [3] -0.01 | [4] -0.02 | [5] -0.028

BLVRB (UniProt P30043)
inactive: [1] -0.033 | [2] -0.116 | [3] 0.007 | [4] 0.016 | [5] 0.041

Next results.

BCLAF1 (UniProt Q9NYF8)
inactive: [1] -0.018 | [2] 0.187 | [3] -0.045 | [4] 0.025 | [5] 0.009

BST2 (UniProt Q10589)
inactive: [1] -0.032 | [2] 0.09 | [3] -0.017 | [4] -0.047 | [5] -0.004

BACH1 (UniProt O14867)
inactive: [1] 0.053 | [2] -0.08 | [3] 0.002 | [4] -0.005 | [5] -0.009

BIRC6 (UniProt Q9NR09)
inactive: [1] -0.011 | [2] -0.07 | [3] 0.049 | [4] 0 | [5] -0.005

BCL9L (UniProt Q86UU0)
inactive: [1] 0.057 | [2] 0.147 | [3] -0.042 | [4] -0.065

BAP1 (UniProt Q92560)
inactive: [1] 0.035 | [2] -0.163 | [3] 0.033 | [4] 0.025 | [5] 0.025

BANP (UniProt Q8N9N5)
inactive: [1] 0.131 | [2] -0.142 | [3] -0.018 | [4] -0.068 | [5] 0.063

BAK1 (UniProt Q16611)
inactive: [1] 0.049 | [2] -0.081 | [3] 0.11 | [4] -0.035 | [5] -0.016

BNIP1 (UniProt Q12981)
inactive: [1] -0.013 | [2] -0.049 | [3] 0.066 | [4] -0.026 | [5] -0.051

BAIAP2 (UniProt Q9UQB8)
inactive: [1] 0.037 | [2] 0.19 | [3] -0.006 | [4] -0.002 | [5] -0.019

BABAM2 (UniProt Q9NXR7)
inactive: [1] -0.008 | [2] -0.017 | [3] 0.014 | [4] 0.036 | [5] -0.038

BCL9 (UniProt O00512)
inactive: [1] 0.09 | [2] 0.035 | [3] -0.023 | [4] -0.008

BRAT1 (UniProt Q6PJG6)
inactive: [1] 0.015 | [3] -0.002 | [4] -0.013 | [5] 0.004
active: [2] -0.32

BOD1L1 (UniProt Q8NFC6)
inactive: [1] 0.016 | [2] 0.013 | [3] 0.001 | [4] 0.011 | [5] -0.009

BEX2 isoform 2 (UniProt Q9BXY8)
inactive: [1] 0.256

BCL2L2 isoform 2 (UniProt Q92843)
inactive: [1] -0.012 | [2] 0.043 | [3] 0.006 | [4] -0.018 | [5] 0.018

BMP2K (UniProt Q9NSY1)
inactive: [1] 0.003 | [2] -0.252 | [3] 0.274 | [4] 0.751 | [5] 0.185

BLMH (UniProt Q13867)
inactive: [1] -0.002 | [2] -0.014 | [3] 0.017 | [4] -0.023 | [5] -0.011

BIRC2 (UniProt Q13490)
inactive: [1] -0.009 | [2] 0 | [3] 0.001 | [4] -0.019 | [5] 0.022

BTD isoform 3 (UniProt P43251)
inactive: [1] 0.03 | [2] 0.166 | [3] -0.018 | [4] 0.051 | [5] 0.03

Quoted from the entries so far (three entries):
BLMH (UniProt Q13867)
inactive: [1] -0.002 | [2] -0.014 | [3] 0.017 | [4] -0.023 | [5] -0.011

BIRC2 (UniProt Q13490)
inactive: [1] -0.009 | [2] 0 | [3] 0.001 | [4] -0.019 | [5] 0.022

BTD isoform 3 (UniProt P43251)
inactive: [1] 0.03 | [2] 0.166 | [3] -0.018 | [4] 0.051 | [5] 0.03

Carrying on:

BORCS7 (UniProt Q96B45)
inactive: [1] -0.078 | [2] 0.149 | [3] 0.098 | [4] 0.049

BRMS1 (UniProt Q9HCU9)
inactive: [1] -0.007 | [2] 0.075 | [3] -0.012 | [4] -0.017 | [5] -0.026

BCAP29 isoform 2 (UniProt Q9UHQ4)
inactive: [1] -0.029 | [2] 0.134 | [3] 0.007 | [4] -0.001 | [5] -0.002

BCAT2 (UniProt O15382)
inactive: [1] 0.015 | [2] 0.162 | [3] -0.01 | [4] 0.014 | [5] 0.007

BOP1 (UniProt Q14137)
inactive: [1] 0.006 | [2] -0.173 | [3] -0.013 | [4] 0.022 | [5] -0.015

B4GALT3 (UniProt O60512)
inactive: [1] -0.197 | [2] 0.049 | [3] -0.029 | [4] -0.055 | [5] -0.15

BIRC5 (UniProt O15392)
inactive: [1] -0.096 | [2] -0.154 | [3] -0.012 | [4] 0 | [5] 0

BORA (UniProt Q6PGQ7)
inactive: [1] 0.289 | [2] -0.115 | [3] -0.027 | [4] -0.052 | [5] -0.112

BLOC1S2 (UniProt Q6QNY1)
inactive: [1] 0.062 | [2] 0.114 | [3] -0.052 | [4] -0.11 | [5] -0.034

BOLA3 (UniProt Q53S33)
inactive: [1] -0.06 | [2] -0.002 | [3] -0.026 | [4] -0.05 | [5] -0.017

BCORL1 isoform 3 (UniProt Q5H9F3)
inactive: [1] 0.177 | [2] -0.004 | [3] -0.093 | [4] 0.213 | [5] -0.018

BRCA1 isoform 7 (UniProt P38398)
inactive: [1] 0.114 | [2] -0.026 | [3] 0.033 | [4] -0.004 | [5] -0.055

BBC3 (UniProt Q9BXH1)
inactive: [1] -0.098 | [2] 0.206 | [3] -0.107 | [4] -0.006 | [5] -0.293

BPHL (UniProt Q86WA6)
inactive: [1] -0.093 | [2] 0.143 | [3] 0.049 | [4] -0.006 | [5] 0.028

BCL7A isoform 2 (UniProt Q4VC05)
inactive: [1] 0.019 | [2] 0.117 | [3] 0.07 | [4] -0.059 | [5] 0.044

BCAT1 (UniProt P54687)
inactive: [1] 0.017 | [2] 0.116 | [3] -0.009 | [4] 0.006 | [5] 0.011

BRAP (UniProt Q7Z569)
inactive: [1] 0.034 | [2] -0.069 | [3] -0.016 | [4] -0.005 | [5] 0.015

BARD1 (UniProt Q99728)
inactive: [1] 0.045 | [2] -0.058 | [3] 0.003 | [4] 0.061 | [5] -0.13

BCAP31 isoform 2 (UniProt P51572)
inactive: [1] 0.009 | [2] 0.113 | [3] -0.01 | [4] -0.02 | [5] -0.005

BTF3L4 (UniProt Q96K17)
inactive: [1] -0.053 | [2] 0.139 | [3] -0.04 | [4] 0.027 | [5] 0.003

BLOC1S3 (UniProt Q6QNY0)
inactive: [1] 0.045 | [2] -0.162 | [3] -0.037 | [4] 0 | [5] -0.042

BICD1 (UniProt Q96G01)
inactive: [1] -0.058 | [2] -0.003 | [3] -0.024 | [4] 0.01 | [5] 0.057

BCS1L (UniProt Q9Y276)
inactive: [1] 0.005 | [2] 0.201 | [3] 0.002 | [4] -0.046 | [5] -0.009

BLOC1S1 (UniProt P78537)
inactive: [1] -0.027 | [2] -0.028 | [3] -0.026 | [4] -0.011 | [5] -0.05
